Laboratory results as given in patent US20160325113A1, “Phototherapy Devices and Methods Comprising Optionally Substituted Quinquiesphenyl Compounds” (NITTO DENKO CORPORATION, priority 2012, published 2016).
At least one compound was matched to its structure with a doubt left.

Test system: actinic keratoses lesions
Assay: Topical photosensitizer plus red OLED illumination of actinic keratoses lesions
Conditions: 16.8% topical cream; excess removed with saline; illuminated with red OLED

COC(=O)CCC(=O)CN.Cl [Methyl aminolevulinate]
number or severity of the lesions after treatment: reduced
